For the experiment, the target named is T1, Ataxin-10 (endogenous, HUVEC) (human (endogenous in HUVEC)) (UniProt Q9UBB4).
T1 sequence: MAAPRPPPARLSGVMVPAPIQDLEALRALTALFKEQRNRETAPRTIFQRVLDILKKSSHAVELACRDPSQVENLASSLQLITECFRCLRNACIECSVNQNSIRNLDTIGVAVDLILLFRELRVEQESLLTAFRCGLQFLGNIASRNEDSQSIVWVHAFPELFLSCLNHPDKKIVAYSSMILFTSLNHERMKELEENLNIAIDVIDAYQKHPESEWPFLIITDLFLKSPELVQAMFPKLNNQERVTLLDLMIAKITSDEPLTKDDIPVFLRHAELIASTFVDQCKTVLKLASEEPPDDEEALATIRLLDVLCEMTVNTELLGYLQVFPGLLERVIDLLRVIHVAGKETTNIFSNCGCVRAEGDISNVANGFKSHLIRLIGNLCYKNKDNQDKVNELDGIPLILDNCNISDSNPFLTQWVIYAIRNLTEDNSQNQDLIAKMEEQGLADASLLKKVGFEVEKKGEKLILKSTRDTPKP
Description: co-IP; HUVECs treated with 10 ng/mL TNF-α for 2 hours; lysates incubated with anti-Ataxin-10 antibody or normal IgG; endogenous proteins.

These are yes or no findings as the source states them, for the method shown. In cells and extracts the contact can be indirect. Some results given as binding are weak or reduced against the parent protein; the word gives no strength.

B1: interferon regulatory factor-1 (endogenous, HUVEC) (protein, UniProt P10914 1-325)
chain: MPITRMRMRPWLEMQINSNQIPGLIWINKEEMIFQIPWKHAAKHGWDINKDACLFRSWAIHTGRYKAGEKEPDPKTWKANFRCAMNSLPDIEEVKDQSRNKGSSAVRVYRMLPPLTKNQRKERKSKSSRDAKSKAKRKSCGDSSPDTFSDGLSSSTLPDDHSSYTVPGYMQDLEVEQALTPALSPCAVSSTLPDWHIPVEVVPDSTSDLYNFQVSPMPSTSEATTDEDEEGKLPEDIMKLLEQSEWQPTNVDGKGYLLNEPGVQPTSVYGDFSCKEEPEIDSPGGDIGLSLQRVFTDLKNMDATWLDSLLTPVRLPSIQAIPCAP
Take B1: the binding entry is “binds”.

The values above are taken from publication PMC8632433.
